For 2 molecules, binding results are on record in PMC11897192.

In assay [1] the target is T1, Flag-ZBTB20 (UniProt Q8K0L9).
T1 sequence: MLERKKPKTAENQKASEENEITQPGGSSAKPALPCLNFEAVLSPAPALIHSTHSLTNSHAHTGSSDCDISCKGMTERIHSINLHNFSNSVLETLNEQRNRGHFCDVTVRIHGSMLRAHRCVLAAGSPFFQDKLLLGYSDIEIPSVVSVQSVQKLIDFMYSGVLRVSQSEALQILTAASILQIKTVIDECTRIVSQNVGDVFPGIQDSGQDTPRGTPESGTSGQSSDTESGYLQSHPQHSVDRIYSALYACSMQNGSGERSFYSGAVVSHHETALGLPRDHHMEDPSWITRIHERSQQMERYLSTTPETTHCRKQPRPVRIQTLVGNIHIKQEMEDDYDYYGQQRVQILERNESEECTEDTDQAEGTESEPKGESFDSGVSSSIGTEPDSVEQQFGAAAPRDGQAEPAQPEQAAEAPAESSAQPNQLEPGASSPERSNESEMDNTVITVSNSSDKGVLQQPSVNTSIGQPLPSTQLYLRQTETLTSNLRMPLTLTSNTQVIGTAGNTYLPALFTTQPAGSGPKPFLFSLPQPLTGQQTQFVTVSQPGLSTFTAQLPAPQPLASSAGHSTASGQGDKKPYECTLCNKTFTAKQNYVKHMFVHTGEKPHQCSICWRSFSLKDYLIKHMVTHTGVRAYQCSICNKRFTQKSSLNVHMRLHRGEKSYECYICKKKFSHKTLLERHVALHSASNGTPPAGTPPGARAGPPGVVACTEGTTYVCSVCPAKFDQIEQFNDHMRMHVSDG
Put plainly: co-IP; tag-fused proteins Flag-ZBTB20 and Myc-LATS1, reciprocal; without IL-1β; cells not given.

Assay [2] deals with T1, Flag-ZBTB20. The assay can be described thus: co-IP; tag-fused proteins Flag-ZBTB20 and Myc-LATS1; cells stimulated with IL-1β.
In the next assay the target is T2, Myc-LATS1 (UniProt Q8BYR2).
T2 sequence: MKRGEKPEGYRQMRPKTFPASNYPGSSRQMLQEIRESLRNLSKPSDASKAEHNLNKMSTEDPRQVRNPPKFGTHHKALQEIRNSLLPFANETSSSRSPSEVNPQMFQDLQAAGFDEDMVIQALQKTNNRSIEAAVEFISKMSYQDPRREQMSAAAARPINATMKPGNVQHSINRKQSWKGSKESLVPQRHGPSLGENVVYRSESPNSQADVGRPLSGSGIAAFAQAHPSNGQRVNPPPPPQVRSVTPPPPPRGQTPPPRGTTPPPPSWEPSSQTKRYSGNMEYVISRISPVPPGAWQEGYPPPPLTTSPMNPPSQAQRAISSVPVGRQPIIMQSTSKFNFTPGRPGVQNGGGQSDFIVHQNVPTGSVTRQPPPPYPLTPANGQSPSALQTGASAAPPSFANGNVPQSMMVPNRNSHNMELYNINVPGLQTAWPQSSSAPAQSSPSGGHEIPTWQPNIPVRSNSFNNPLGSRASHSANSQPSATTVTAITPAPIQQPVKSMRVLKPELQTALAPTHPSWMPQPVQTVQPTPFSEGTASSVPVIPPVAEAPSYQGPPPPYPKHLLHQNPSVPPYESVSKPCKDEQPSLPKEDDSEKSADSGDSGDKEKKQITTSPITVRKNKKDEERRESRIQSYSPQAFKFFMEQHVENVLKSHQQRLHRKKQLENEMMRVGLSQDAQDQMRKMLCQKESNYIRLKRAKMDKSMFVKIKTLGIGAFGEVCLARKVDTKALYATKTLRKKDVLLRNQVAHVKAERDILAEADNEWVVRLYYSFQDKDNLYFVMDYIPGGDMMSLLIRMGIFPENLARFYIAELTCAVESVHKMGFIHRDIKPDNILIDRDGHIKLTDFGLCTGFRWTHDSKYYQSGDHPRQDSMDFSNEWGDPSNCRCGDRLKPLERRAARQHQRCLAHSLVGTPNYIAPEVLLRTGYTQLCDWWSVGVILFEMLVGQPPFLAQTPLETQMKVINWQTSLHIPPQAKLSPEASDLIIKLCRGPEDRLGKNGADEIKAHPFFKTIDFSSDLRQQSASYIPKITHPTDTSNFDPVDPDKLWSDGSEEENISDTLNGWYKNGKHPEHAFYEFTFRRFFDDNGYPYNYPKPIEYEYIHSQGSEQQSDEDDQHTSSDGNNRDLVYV
The assay can be described thus: co-IP; tag-fused proteins Flag-ZBTB20 and Myc-LATS1, reciprocal; without IL-1β; cells not given.

No constants are given. Whether binding was seen depends on the method and setting. Binding seen in cells or lysates may run through a third protein. Some entries that bind do so weakly or less than the wild type. Tags and fused reporters may be left off the sequences shown.

B1: Myc-LATS1 (protein, UniProt Q8BYR2 1-1129)
chain: T2 sequence
On to B1, for which the binding entry with Flag-ZBTB20 [1] is reported as “binds”; with Flag-ZBTB20 [2], “no binding (condition: cells treated with IL-1β)”.

B2: Flag-ZBTB20 (protein, UniProt Q8K0L9 1-741)
chain: T1 sequence
Consider B2, for which the binding result with Myc-LATS1 is on record as “binds”.
